Experimental data as given in PMC12035900.
No constants are given. Whether binding was seen depends on the method and setting. Binding seen in cells or lysates may run through a third protein. These calls come from enrichment with a bait or labelling near it, and not all partners need be listed. Where a sequence is shown, tags or fusion partners need not be part of it.

Chains of the proteins cited; added tags and fusions are not shown.
UniProt P17096: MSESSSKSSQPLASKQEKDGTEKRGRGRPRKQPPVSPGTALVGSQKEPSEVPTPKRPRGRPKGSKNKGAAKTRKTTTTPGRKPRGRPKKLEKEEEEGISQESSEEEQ
UniProt P19474: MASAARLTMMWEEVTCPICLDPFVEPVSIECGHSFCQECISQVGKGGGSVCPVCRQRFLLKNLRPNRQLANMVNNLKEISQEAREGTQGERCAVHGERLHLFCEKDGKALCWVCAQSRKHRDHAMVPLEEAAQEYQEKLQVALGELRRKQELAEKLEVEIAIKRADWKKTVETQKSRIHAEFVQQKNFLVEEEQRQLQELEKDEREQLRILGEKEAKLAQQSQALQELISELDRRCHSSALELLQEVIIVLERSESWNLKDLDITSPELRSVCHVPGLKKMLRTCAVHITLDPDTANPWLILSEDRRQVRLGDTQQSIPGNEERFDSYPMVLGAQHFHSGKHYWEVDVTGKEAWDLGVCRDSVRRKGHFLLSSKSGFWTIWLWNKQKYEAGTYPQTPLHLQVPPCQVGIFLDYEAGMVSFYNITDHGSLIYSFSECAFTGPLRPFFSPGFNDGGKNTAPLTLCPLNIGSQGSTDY

B1: FLOT1 (protein, UniProt O75955 1-427)
chain: MFFTCGPNEAMVVSGFCRSPPVMVAGGRVFVLPCIQQIQRISLNTLTLNVKSEKVYTRHGVPISVTGIAQVKIQGQNKEMLAAACQMFLGKTEAEIAHIALETLEGHQRAIMAHMTVEEIYKDRQKFSEQVFKVASSDLVNMGISVVSYTLKDIHDDQDYLHSLGKARTAQVQKDARIGEAEAKRDAGIREAKAKQEKVSAQYLSEIEMAKAQRDYELKKAAYDIEVNTRRAQADLAYQLQVAKTKQQIEEQRVQVQVVERAQQVAVQEQEIARREKELEARVRKPAEAERYKLERLAEAEKSQLIMQAEAEAASVRMRGEAEAFAIGARARAEAEQMAKKAEAFQLYQEAAQLDMLLEKLPQVAEEISGPLTSANKITLVSSGSGTMGAAKVTGEVLDILTRLPESVERLTGVSISQVNHKPLRTA
B2: FLOT2 (protein, UniProt Q14254 1-428)
chain: MGNCHTVGPNEALVVSGGCCGSDYKQYVFGGWAWAWWCISDTQRISLEIMTLQPRCEDVETAEGVALTVTGVAQVKIMTEKELLAVACEQFLGKNVQDIKNVVLQTLEGHLRSILGTLTVEQIYQDRDQFAKLVREVAAPDVGRMGIEILSFTIKDVYDKVDYLSSLGKTQTAVVQRDADIGVAEAERDAGIREAECKKEMLDVKFMADTKIADSKRAFELQKSAFSEEVNIKTAEAQLAYELQGAREQQKIRQEEIEIEVVQRKKQIAVEAQEILRTDKELIATVRRPAEAEAHRIQQIAEGEKVKQVLLAQAEAEKIRKIGEAEAAVIEAMGKAEAERMKLKAEAYQKYGDAAKMALVLEALPQIAAKIAAPLTKVDEIVVLSGDNSKVTSEVNRLLAELPASVHALTGVDLSKIPLIKKATGVQV
B3: KCTD10 (protein, UniProt Q9H3F6 1-313)
chain: MEEMSGESVVSSAVPAAATRTTSFKGTSPSSKYVKLNVGGALYYTTMQTLTKQDTMLKAMFSGRMEVLTDSEGWILIDRCGKHFGTILNYLRDGAVPLPESRREIEELLAEAKYYLVQGLVEECQAALQNKDTYEPFCKVPVITSSKEEQKLIATSNKPAVKLLYNRSNNKYSYTSNSDDNMLKNIELFDKLSLRFNGRVLFIKDVIGDEICCWSFYGQGRKIAEVCCTSIVYATEKKQTKVEFPEARIYEETLNILLYEAQDGRGPDNALLEATGGAAGRSHHLDEDEERERIERVRRIHIKRPDDRAHLHQ

Target: T1, TOX conjugated with a GFP tag (thymocyte selection-associated high mobility group box) (UniProt O94900)
T1 sequence: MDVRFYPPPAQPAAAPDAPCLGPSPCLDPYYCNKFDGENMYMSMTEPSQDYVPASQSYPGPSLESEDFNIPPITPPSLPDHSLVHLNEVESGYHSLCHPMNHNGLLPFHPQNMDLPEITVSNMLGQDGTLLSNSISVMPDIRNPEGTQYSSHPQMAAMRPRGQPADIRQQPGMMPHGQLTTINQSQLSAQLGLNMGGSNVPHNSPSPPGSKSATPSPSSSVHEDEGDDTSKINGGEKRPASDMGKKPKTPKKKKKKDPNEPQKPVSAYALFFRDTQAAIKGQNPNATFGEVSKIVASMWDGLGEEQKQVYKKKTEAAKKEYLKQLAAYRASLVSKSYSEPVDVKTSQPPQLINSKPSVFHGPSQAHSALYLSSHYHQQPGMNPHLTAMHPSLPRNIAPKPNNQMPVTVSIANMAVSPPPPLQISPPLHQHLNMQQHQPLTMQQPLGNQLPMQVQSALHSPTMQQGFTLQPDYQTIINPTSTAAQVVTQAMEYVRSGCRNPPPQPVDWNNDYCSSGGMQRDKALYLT
Assay: affinity purification with mass spectrometry; TOX-GFP immunoprecipitates from cell lysate, on-bead trypsin digestion, LC-MS/MS (Q-Exactive HF), label-free quantitation; called preliminary, with considerable variations between attempts

Molecule	binding
High Mobility Group A1 (HMGA1) (from UniProt P17096 1-107)	binds
TRIM21 (from UniProt P19474 1-475)	binds
B1	binds
B2	binds
B3	binds
